Test results taken from paper PMC6403468.
These are yes or no findings as the source states them, for the method shown. In cells and extracts the contact can be indirect. Some results given as binding are weak or reduced against the parent protein; the word gives no strength.

The chains behind the UniProt entries cited, without tags or fusion partners. Residues count along the entry.
UniProt Q924X6, residues 29-996: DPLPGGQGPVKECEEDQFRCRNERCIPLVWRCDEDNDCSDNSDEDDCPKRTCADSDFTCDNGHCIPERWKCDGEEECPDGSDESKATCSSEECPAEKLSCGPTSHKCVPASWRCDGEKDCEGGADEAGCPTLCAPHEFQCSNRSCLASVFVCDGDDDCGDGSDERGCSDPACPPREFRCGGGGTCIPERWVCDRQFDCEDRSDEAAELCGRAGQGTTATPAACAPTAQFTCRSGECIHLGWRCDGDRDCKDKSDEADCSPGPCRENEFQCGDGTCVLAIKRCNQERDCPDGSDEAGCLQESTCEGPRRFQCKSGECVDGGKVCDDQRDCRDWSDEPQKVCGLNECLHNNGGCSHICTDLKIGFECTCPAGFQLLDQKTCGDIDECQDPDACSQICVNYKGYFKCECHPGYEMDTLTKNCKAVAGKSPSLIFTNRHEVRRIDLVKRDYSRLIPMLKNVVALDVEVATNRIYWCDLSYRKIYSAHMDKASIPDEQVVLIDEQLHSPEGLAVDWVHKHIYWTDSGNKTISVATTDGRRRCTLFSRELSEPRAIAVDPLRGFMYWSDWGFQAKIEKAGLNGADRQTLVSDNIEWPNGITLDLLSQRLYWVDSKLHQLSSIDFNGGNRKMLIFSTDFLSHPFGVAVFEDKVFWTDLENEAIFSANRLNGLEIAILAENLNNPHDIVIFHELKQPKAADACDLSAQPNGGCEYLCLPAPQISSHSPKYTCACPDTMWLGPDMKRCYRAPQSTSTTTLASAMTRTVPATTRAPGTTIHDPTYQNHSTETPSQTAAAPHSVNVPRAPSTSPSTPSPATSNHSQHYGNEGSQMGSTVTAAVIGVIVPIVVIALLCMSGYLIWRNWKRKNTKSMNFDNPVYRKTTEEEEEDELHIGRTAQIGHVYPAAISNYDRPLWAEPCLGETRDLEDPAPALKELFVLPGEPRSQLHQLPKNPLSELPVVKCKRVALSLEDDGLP

Target: ApoER2 fused to monomeric GFP (ApoER2_mGFP) (UniProt Q924X6)
Assay: co-IP; HEK293 cells expressing mGFP- and mCherry-tagged copies of one receptor, NP-40 lysis buffer, anti-GFP crosslinked to Protein A Sepharose, western blot with anti-mCherry

binding: binds
Substance: ApoER2 fused to mCherry (ApoER2_mCherry) (from UniProt Q924X6 29-996) (receptor)
